Record: PubChem BioAssay AID504791 (Drosophila RNAi Screening Center, 2011)

Purpose: 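Factors in Argonaute-based small RNA production and activity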 (primary screen)
Cells: Drosophila S2-derived reporter cells
Reagent: long dsRNA against Drosophila genes, about 150-250 ng dsRNA per well (siRNA assay); about 80-120 ng (miRNA assay)
Timing: about 5 days (siRNA assay); about 4 days (miRNA assay)
Treatment: copper sulfate induction of reporters: 25 µM (siRNA assay); 200 mM stated (miRNA assay), 1-2 days before reading
Measured: 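Per-well ratio of Renilla over firefly light, expressed relative to that plate's average ratio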
Units: stable assay Renilla, run 1 in luminescence; stable assay firefly, run 1 in luminescence
Rule for the call: 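a well was a first-pass pick when its plate-scaled ratio rose above 1.5 (siRNA assay) or 1.6 (miRNA assay), or dropped below 0.6; a gene counted only if two separate dsRNAs agreed on retest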
In all, the deposit lists about 23,000 reagents; this is a random part of those that have a named target and a result. Of all reagents, 199 (0.86%) got an active call. 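Plate-scaled ratios behind the calls are not deposited; printed light signals are raw; many rows marked increased or decreased are still called inactive.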 A number with no mark means an inactive call. Names joined by + are all predicted targets of the reagent. No sequences are given here. Not stated in the record: the direction of the score.

Silencing of CG13747 [DRSC06418] resulted in: stable assay Renilla, run 1 = 5762; stable assay firefly, run 1 = 3.93e5.
After knock-down of CG30031 + deltaTry + CG30025 + 1 more [DRSC21262], the screen gave stable assay Renilla, run 1 = 4859; stable assay firefly, run 1 = 3.20e5.
Against Coq5 [DRSC19849], the entry reads stable assay Renilla, run 1 = 3544; stable assay firefly, run 1 = 3.81e5.
Depletion of Coq5 [DRSC21371] gave: stable assay Renilla, run 1 = 8874; stable assay firefly, run 1 = 4.52e5.
Against CG43394 [DRSC01013], the values are stable assay Renilla, run 1 = 5152; stable assay firefly, run 1 = 3.78e5.
After knock-down of CG16786 [DRSC04281], the record shows stable assay Renilla, run 1 = 5651; stable assay firefly, run 1 = 3.31e5.
For Skeletor (retired record) [DRSC14905] the deposit lists stable assay Renilla, run 1 = 6930; stable assay firefly, run 1 = 3.82e5.
Against Skeletor (retired record) [DRSC14906] the deposit lists stable assay Renilla, run 1 = 8494; stable assay firefly, run 1 = 4.02e5.
For CG42336 [DRSC05273], the values are stable assay Renilla, run 1 = 6283; stable assay firefly, run 1 = 3.61e5.
CG42336 [DRSC06332] gave stable assay Renilla, run 1 = 6758; stable assay firefly, run 1 = 4.01e5.
Against CG42336 [DRSC06333], the values are stable assay Renilla, run 1 = 6220; stable assay firefly, run 1 = 4.72e5.
sNPF-R [DRSC10836] gave stable assay Renilla, run 1 = 7674; stable assay firefly, run 1 = 3.59e5.
Silencing of CG31437 [DRSC13711] resulted in: stable assay Renilla, run 1 = 7994; stable assay firefly, run 1 = 5.54e5.
After knock-down of CG13312 [DRSC09983], the screen gave stable assay Renilla, run 1 = 6451; stable assay firefly, run 1 = 3.53e5.

Part of the list above in another layout:
{"predicted target": "CG31437", "amplicon": "DRSC13711", "stable assay Renilla, run 1": 7994, "stable assay firefly, run 1": 5.54e5}
{"predicted target": "CG13312", "amplicon": "DRSC09983", "stable assay Renilla, run 1": 6451, "stable assay firefly, run 1": 3.53e5}

Further reagents follow:
After knock-down of nAChRalpha1 [DRSC13664], the screen gave stable assay Renilla, run 1 = 4912; stable assay firefly, run 1 = 2.98e5.
For nAChRalpha1 [DRSC13670], the values are stable assay Renilla, run 1 = 4708; stable assay firefly, run 1 = 2.24e5.
After knock-down of nAChRalpha1 [DRSC13672], the record shows stable assay Renilla, run 1 = 6158; stable assay firefly, run 1 = 5.06e5.
Depletion of nAChRalpha1 [DRSC17008] resulted in: stable assay Renilla, run 1 = 7871; stable assay firefly, run 1 = 4.66e5.
Depletion of sgl [DRSC21431] gave: stable assay Renilla, run 1 = 7851; stable assay firefly, run 1 = 4.03e5.
For CG11696 [DRSC19417] the deposit lists stable assay Renilla, run 1 = 8418; stable assay firefly, run 1 = 6.11e5.
CG8924 [DRSC20122] scored stable assay Renilla, run 1 = 6683; stable assay firefly, run 1 = 3.39e5.
CG8924 [DRSC23027] showed stable assay Renilla, run 1 = 5460; stable assay firefly, run 1 = 3.76e5.
With knock-down of CG14024 [DRSC00868], the record shows stable assay Renilla, run 1 = 5730; stable assay firefly, run 1 = 4.53e5.
Knock-down of CG14024 [DRSC02354] gave: stable assay Renilla, run 1 = 15053; stable assay firefly, run 1 = 4.52e5.
For Samtor [DRSC04390] the deposit lists stable assay Renilla, run 1 = 44170; stable assay firefly, run 1 = 1.61e6.
Knock-down of Cyp6a18 [DRSC16632] gave: stable assay Renilla, run 1 = 6632; stable assay firefly, run 1 = 4.18e5.
Depletion of HIP + HIP-R [DRSC18245] resulted in: stable assay Renilla, run 1 = 7386; stable assay firefly, run 1 = 4.71e5.
Against Gpdh1 [DRSC03336], the values are stable assay Renilla, run 1 = 1.07e5; stable assay firefly, run 1 = 1.83e5.
Silencing of Gpdh1 [DRSC21666] came out at: stable assay Renilla, run 1 = 10113; stable assay firefly, run 1 = 5.93e5.
